From the supplement of paper PMC7661543
Differences between knockout arms are mostly noise.

Tested on: HCC-38
Assay: relative cell number vs DMSO control (72 h) (% of DMSO); higher = less growth inhibition (more cells)
Procedure: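 QMAP-Seq: a pool of 5 breast cancer cell lines (ZR-75-1, SKBR3, HCC-38, MDA-MB-231, BT-20), each carrying 12 doxycycline-inducible Cas9 sgRNA perturbations (11 knockouts plus non-targeting sgNT), was treated with compounds for 72 h at four 10-fold doses (10 nM-10 uM or 1 nM-1 uM range). Barcodes were amplified and sequenced, and cell number was interpolated from 293T spike-in standard curves. The result is expressed as % of the median of DMSO wells. Two biological replicates.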

Nc1ncn([C@H]2C[C@H](O)[C@@H](CO)O2)c(=O)n1 [Decitabine]
Settings	relative cell number
sgRNA knockout: sgATF3, 10 nM	93.5
sgRNA knockout: sgATF3, 100 nM	76.593
sgRNA knockout: sgATF3, 1000 nM	51.4
sgRNA knockout: sgATF3, 10000 nM	39.3
sgRNA knockout: sgATF4, 10 nM	95.5
sgRNA knockout: sgATF4, 100 nM	75.84
sgRNA knockout: sgATF4, 1000 nM	47
sgRNA knockout: sgATF4, 10000 nM	34.1
sgRNA knockout: sgATF6, 10 nM	95
sgRNA knockout: sgATF6, 100 nM	62.7
sgRNA knockout: sgATF6, 1000 nM	46.4
sgRNA knockout: sgATF6, 10000 nM	43.4
sgRNA knockout: sgATG7, 10 nM	101
sgRNA knockout: sgATG7, 100 nM	74.1
sgRNA knockout: sgATG7, 1000 nM	52.7
sgRNA knockout: sgATG7, 10000 nM	33.6
sgRNA knockout: sgERN1, 10 nM	98.7
sgRNA knockout: sgERN1, 100 nM	75.08
sgRNA knockout: sgERN1, 1000 nM	52.3
sgRNA knockout: sgERN1, 10000 nM	34.2
sgRNA knockout: sgHSF1, 10 nM	87.8
sgRNA knockout: sgHSF1, 100 nM	77.6
sgRNA knockout: sgHSF1, 1000 nM	56.9
sgRNA knockout: sgHSF1, 10000 nM	35
sgRNA knockout: sgHSF2, 10 nM	103
sgRNA knockout: sgHSF2, 100 nM	83.9
sgRNA knockout: sgHSF2, 1000 nM	50.5
sgRNA knockout: sgHSF2, 10000 nM	35.7
sgRNA knockout: sgKEAP1, 10 nM	114
sgRNA knockout: sgKEAP1, 100 nM	74.8
sgRNA knockout: sgKEAP1, 1000 nM	56.7
sgRNA knockout: sgKEAP1, 10000 nM	36.2
sgRNA knockout: sgNFE2L2, 10 nM	91.7
sgRNA knockout: sgNFE2L2, 100 nM	78.2
sgRNA knockout: sgNFE2L2, 1000 nM	50.2
sgRNA knockout: sgNFE2L2, 10000 nM	33.5
sgRNA knockout: sgSLC35F2, 10 nM	89.5
sgRNA knockout: sgSLC35F2, 100 nM	79.1
sgRNA knockout: sgSLC35F2, 1000 nM	49.9
sgRNA knockout: sgSLC35F2, 10000 nM	36.3
sgRNA knockout: sgXBP1, 10 nM	103
sgRNA knockout: sgXBP1, 100 nM	73.7
sgRNA knockout: sgXBP1, 1000 nM	50.3
sgRNA knockout: sgXBP1, 10000 nM	33.1

COc1cccc2c1C(=O)c1c(O)c3c(c(O)c1C2=O)C[C@@](O)(C(=O)CO)C[C@@H]3O[C@H]1C[C@H](N)[C@H](O)[C@H](C)O1 [Doxorubicin]
Settings	relative cell number
sgRNA knockout: sgATF3, 10 nM	85.6
sgRNA knockout: sgATF3, 100 nM	38.4
sgRNA knockout: sgATF3, 1000 nM	19
sgRNA knockout: sgATF3, 10000 nM	13
sgRNA knockout: sgATF4, 10 nM	80.9
sgRNA knockout: sgATF4, 100 nM	40.1
sgRNA knockout: sgATF4, 1000 nM	21.8
sgRNA knockout: sgATF4, 10000 nM	12.3
sgRNA knockout: sgATF6, 10 nM	81.1
sgRNA knockout: sgATF6, 100 nM	46.7
sgRNA knockout: sgATF6, 1000 nM	20.9
sgRNA knockout: sgATF6, 10000 nM	16.4
sgRNA knockout: sgATG7, 10 nM	76.7
sgRNA knockout: sgATG7, 100 nM	36
sgRNA knockout: sgATG7, 1000 nM	18.01
sgRNA knockout: sgATG7, 10000 nM	8.76
sgRNA knockout: sgERN1, 10 nM	81.1
sgRNA knockout: sgERN1, 100 nM	39.7
sgRNA knockout: sgERN1, 1000 nM	22.4
sgRNA knockout: sgERN1, 10000 nM	14.1
sgRNA knockout: sgHSF1, 10 nM	71.7
sgRNA knockout: sgHSF1, 100 nM	44.1
sgRNA knockout: sgHSF1, 1000 nM	15.6
sgRNA knockout: sgHSF1, 10000 nM	11
sgRNA knockout: sgHSF2, 10 nM	81.6
sgRNA knockout: sgHSF2, 100 nM	40.93
sgRNA knockout: sgHSF2, 1000 nM	19.8
sgRNA knockout: sgHSF2, 10000 nM	12.7
sgRNA knockout: sgKEAP1, 10 nM	94
sgRNA knockout: sgKEAP1, 100 nM	40.3
sgRNA knockout: sgKEAP1, 1000 nM	22.9
sgRNA knockout: sgKEAP1, 10000 nM	13.8
sgRNA knockout: sgNFE2L2, 10 nM	76.3
sgRNA knockout: sgNFE2L2, 100 nM	38.4
sgRNA knockout: sgNFE2L2, 1000 nM	22.9
sgRNA knockout: sgNFE2L2, 10000 nM	11.1
sgRNA knockout: sgSLC35F2, 10 nM	80.53
sgRNA knockout: sgSLC35F2, 100 nM	34.3
sgRNA knockout: sgSLC35F2, 1000 nM	27
sgRNA knockout: sgSLC35F2, 10000 nM	11.6
sgRNA knockout: sgXBP1, 10 nM	82.1
sgRNA knockout: sgXBP1, 100 nM	38.3
sgRNA knockout: sgXBP1, 1000 nM	21
sgRNA knockout: sgXBP1, 10000 nM	10

Nc1ccccc1NC(=O)c1ccc(CNC(=O)OCc2cccnc2)cc1 [Entinostat]
Settings	relative cell number
sgRNA knockout: sgATF3, 10 nM	98.7
sgRNA knockout: sgATF3, 100 nM	102
sgRNA knockout: sgATF3, 1000 nM	63.4
sgRNA knockout: sgATF3, 10000 nM	36.1
sgRNA knockout: sgATF4, 10 nM	99.405
sgRNA knockout: sgATF4, 100 nM	106
sgRNA knockout: sgATF4, 1000 nM	66.3
sgRNA knockout: sgATF4, 10000 nM	34.2
sgRNA knockout: sgATF6, 10 nM	82.3
sgRNA knockout: sgATF6, 100 nM	119
sgRNA knockout: sgATF6, 1000 nM	57.9
sgRNA knockout: sgATF6, 10000 nM	30.3
sgRNA knockout: sgATG7, 10 nM	103.98
sgRNA knockout: sgATG7, 100 nM	106
sgRNA knockout: sgATG7, 1000 nM	61.8
sgRNA knockout: sgATG7, 10000 nM	30.6
sgRNA knockout: sgERN1, 10 nM	98.8
sgRNA knockout: sgERN1, 100 nM	104
sgRNA knockout: sgERN1, 1000 nM	54.9
sgRNA knockout: sgERN1, 10000 nM	34.8
sgRNA knockout: sgHSF1, 10 nM	98.9
sgRNA knockout: sgHSF1, 100 nM	123
sgRNA knockout: sgHSF1, 1000 nM	59.8
sgRNA knockout: sgHSF1, 10000 nM	35.6
sgRNA knockout: sgHSF2, 10 nM	94.6
sgRNA knockout: sgHSF2, 100 nM	113
sgRNA knockout: sgHSF2, 1000 nM	60.1
sgRNA knockout: sgHSF2, 10000 nM	38.9
sgRNA knockout: sgKEAP1, 10 nM	99.4
sgRNA knockout: sgKEAP1, 100 nM	122
sgRNA knockout: sgKEAP1, 1000 nM	57.9
sgRNA knockout: sgKEAP1, 10000 nM	33.9
sgRNA knockout: sgNFE2L2, 10 nM	100.1
sgRNA knockout: sgNFE2L2, 100 nM	101
sgRNA knockout: sgNFE2L2, 1000 nM	67.7
sgRNA knockout: sgNFE2L2, 10000 nM	32.6
sgRNA knockout: sgSLC35F2, 10 nM	102
sgRNA knockout: sgSLC35F2, 100 nM	105
sgRNA knockout: sgSLC35F2, 1000 nM	67.5
sgRNA knockout: sgSLC35F2, 10000 nM	33.7
sgRNA knockout: sgXBP1, 10 nM	110
sgRNA knockout: sgXBP1, 100 nM	104
sgRNA knockout: sgXBP1, 1000 nM	69.4
sgRNA knockout: sgXBP1, 10000 nM	34.7
